From doi:10.1101/2020.01.21.913079
Read-outs that look alike come from different tables or passages of the source. Results are given in words; binding and its absence hold for the method and conditions named. In cells and extracts the contact can be indirect. A yes stands for co-enrichment or nearness to the bait. Other partners may have been found. A no says only that the protein was not detected with the bait.

Sequences of proteins named here, by UniProt entry; tags and fusion partners are left off.
UniProt O18640: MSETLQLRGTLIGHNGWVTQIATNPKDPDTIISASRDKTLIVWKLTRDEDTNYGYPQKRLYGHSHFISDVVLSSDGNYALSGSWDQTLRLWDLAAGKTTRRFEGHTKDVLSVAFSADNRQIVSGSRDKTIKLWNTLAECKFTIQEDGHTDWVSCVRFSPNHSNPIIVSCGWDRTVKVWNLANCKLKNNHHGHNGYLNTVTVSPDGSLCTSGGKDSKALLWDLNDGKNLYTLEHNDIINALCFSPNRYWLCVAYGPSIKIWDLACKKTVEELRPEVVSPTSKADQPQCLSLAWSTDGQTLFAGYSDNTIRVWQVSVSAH

T1: Rasputin (RIN), Drosophila G3BP (Drosophila (endogenous in embryos)) (UniProt Q9VFT4)
T1 sequence: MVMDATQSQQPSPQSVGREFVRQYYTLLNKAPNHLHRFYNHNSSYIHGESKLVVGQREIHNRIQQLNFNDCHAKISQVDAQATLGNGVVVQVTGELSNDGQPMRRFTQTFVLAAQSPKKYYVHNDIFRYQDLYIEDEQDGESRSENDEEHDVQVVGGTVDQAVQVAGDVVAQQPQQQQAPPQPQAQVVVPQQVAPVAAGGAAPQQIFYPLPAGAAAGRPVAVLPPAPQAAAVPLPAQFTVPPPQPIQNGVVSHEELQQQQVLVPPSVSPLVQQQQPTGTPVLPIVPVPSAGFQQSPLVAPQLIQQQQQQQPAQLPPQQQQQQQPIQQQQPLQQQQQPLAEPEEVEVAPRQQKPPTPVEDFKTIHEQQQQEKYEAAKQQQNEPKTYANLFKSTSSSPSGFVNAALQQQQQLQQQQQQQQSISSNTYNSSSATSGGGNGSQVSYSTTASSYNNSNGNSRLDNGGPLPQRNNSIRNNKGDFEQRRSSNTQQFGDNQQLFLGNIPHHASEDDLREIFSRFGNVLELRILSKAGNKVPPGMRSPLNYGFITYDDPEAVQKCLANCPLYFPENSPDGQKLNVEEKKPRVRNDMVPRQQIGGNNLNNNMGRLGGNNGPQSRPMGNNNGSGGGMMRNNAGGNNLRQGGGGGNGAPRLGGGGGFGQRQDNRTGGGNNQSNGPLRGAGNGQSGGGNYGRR


Key:
[1] = molecular target: T1, Rasputin (RIN), Drosophila G3BP (Drosophila (endogenous in embryos)); assay: affinity purification with mass spectrometry
[2] = molecular target: T1, Rasputin (RIN), Drosophila G3BP (Drosophila (endogenous in embryos)); assay: affinity purification with mass spectrometry; remark: listed apart in the source

| binding [1] | binding [2] | Molecule |
| --- | --- | --- |
| no binding | no binding | Drosophila RACK1 (from UniProt O18640 1-318) |
| binds |  | HSC70Cb (Drosophila (endogenous in embryos)) |
| binds |  | Twenty-four (Drosophila (endogenous in embryos)) |
| binds |  | Caprin (protein, UniProt Q9I7D3 1-961) MPSAANTATVTAAIATTVAASASNTNNNSVSKEKRSSIISLGGSVIPGTAVAAGAGVATTNGQSNSSAAATADGSQTDLASSNNNGNAAKSKANAVSAAAVVPEPYNPLKQLLVTIEHKIRNLEKRKTKLESYRAIQSSGKELSGDQASAVAKYDAVLANLEFARELAKHIQQQSKEAEKEQKKQARKDNLAKTIAETAKIREVLIIQNVLNCFNDDQVRSDFLNGENGAKKLENTELELLEKFFIETQTRRPETADDVSFIATAQKSAELFYSTINARPKSFGEVSFEKLRSLFQQIQDSGYLDKYYLVPLAENAVANSTDSGTGSGDGESGDLLNDGSGELDAELPSEPSARNSLEEGLDKLHLGVQAELDQHQSYQQQQERPSHLLEPQHQRAPSLEHQQNSMVQQVSTQVYQAAPQAGGTTTPVHVLYAPAPPAQQQPQQPPPHPHQLLSSPVNLQALQTGTAAPPAQQQQPHPTHFAPNVRAVEQNYFKQPPQHPQGPGIQAPQTPQQQQFMQHSRPLAEVLGTGRFHFLQDSELDNPEALAPPPPTNQGLVFEQQPQQPNHVEEPTQAILTLTFTNQSFPSQQPQPQQQGPQQQQQLFSPVLIHEQRQQPPQQQPQPMLIMPRLPTQQPQQPAPQGIGMQAGDVTSGFSYENAVVSYEQQIQQQLKQQQQQQQQQQQNLQQLDEPSSVNSSSSVGAGGDVENNEWHARNNDTNAAATAALTNVLKGETTQATPPAPPTKWSSEMNAMSSAASNGSSNTSHKQEWATPRDHSTGGGNSGYADNNESNNHWNNSQGDGRRNSGNYQRRGGDRDNRDRDQGGRGDERRNGGDRGNYRSRQYGNSSNTNGRNSGNSSGVYFRNNESGNGGGNNYYQNGGGGGGTYNKESRYESSGGGGGSYRGQRGGNQQRNVNGSYGGGRPMGDRGRGGAGNQGGGGGGYINRQNQSQRMPLGLENKN |
